Key:
IMR-32 cell line = assay: SRB growth assay on IMR-32 neuronal cell line; type: cell-based, human; settings: IMR32, SRB assay, tested at 10-80 μg/ml; FIG. 8
U373-MG cell line = assay: SRB growth assay on U373 MG glial cell line; type: cell-based, human; settings: U373MG, tested at 10-80 μg/ml, FIG. 9

`COc1cc2c(cc1OC)C(=O)C(CC1CCN(Cc3ccccc3)CC1)C2` (centres unmarked) [Donepezil] was tested, and the “GI 50 (concentration causing 50% inhibition of cell growth)” value (IMR-32 cell line) was “no activity” and the “GI 50 (concentration causing 50% inhibition of cell growth)” value (U373-MG cell line) was “have not produced any significant activity”.

Source: patent US11007243B2, “Enzyme-assisted supercritical extraction of nigella sativa seeds” (priority 2016, dated 2021)
